This note sets out measurements from PubChem BioAssay AID493027 (The Scripps Research Institute Molecular Screening Center, 2011).

Sequences of proteins named here, by UniProt entry; tags and fusion partners are left off. A change or cut given only in a name is not applied to a line headed by its entry.
UniProt O60240: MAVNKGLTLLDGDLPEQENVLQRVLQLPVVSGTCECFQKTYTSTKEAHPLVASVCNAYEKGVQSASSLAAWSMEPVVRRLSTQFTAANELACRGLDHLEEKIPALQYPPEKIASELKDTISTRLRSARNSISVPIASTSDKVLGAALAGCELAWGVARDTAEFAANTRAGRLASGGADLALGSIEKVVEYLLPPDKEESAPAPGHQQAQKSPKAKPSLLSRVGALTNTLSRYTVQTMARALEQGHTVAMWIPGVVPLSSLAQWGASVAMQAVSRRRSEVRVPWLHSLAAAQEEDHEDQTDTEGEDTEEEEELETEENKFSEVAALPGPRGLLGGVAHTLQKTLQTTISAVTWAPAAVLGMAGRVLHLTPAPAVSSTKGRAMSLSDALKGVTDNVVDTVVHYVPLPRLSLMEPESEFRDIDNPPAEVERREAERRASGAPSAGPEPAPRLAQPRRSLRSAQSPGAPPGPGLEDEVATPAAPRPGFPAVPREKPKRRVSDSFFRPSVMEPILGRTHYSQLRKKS
UniProt Q8WTS1: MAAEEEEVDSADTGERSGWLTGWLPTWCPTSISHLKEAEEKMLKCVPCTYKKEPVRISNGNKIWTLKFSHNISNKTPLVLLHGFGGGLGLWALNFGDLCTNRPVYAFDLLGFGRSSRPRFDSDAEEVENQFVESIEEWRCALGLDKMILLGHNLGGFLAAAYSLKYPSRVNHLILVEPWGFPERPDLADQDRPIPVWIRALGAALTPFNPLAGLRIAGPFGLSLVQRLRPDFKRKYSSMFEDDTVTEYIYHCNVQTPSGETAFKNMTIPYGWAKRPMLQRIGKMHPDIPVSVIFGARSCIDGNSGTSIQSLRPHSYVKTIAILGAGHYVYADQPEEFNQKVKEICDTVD

Among all 2,000 compounds or so, about 45 (2%) were called active.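 The calls were made as follows: active = inhibition above the screen-wide mean inhibition plus 3 SD (cut at about 44% in these data); inactive = the rest.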 The list shows a part of the results.

Broadly, the inhibition is the change of the read-out against control, counted positive when it falls.

The test deals with Perilipin-1 (Homo sapiens) + 1-acylglycerol-3-phosphate O-acyltransferase ABHD5 (Homo sapiens) (UniProt O60240+Q8WTS1). In words: ABHD5-PLIN1 interaction inhibitors, pilot screen, cell lysate, split luciferase complementation, luminescence, NIH validation set (AID 493027).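 Also: 0% = DMSO wells with the 100% control not disclosed.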 The conditions noted are these: split G. princeps luciferase complementation, 4 h; at 7.9 µM, stronger effect = higher value.
For `CCc1cc2c(C)cc(=O)oc2cc1OC(=O)C1CCCN1C(=O)OC(C)(C)C` (centres undefined), the inhibition was inactive: 1.95%.
In the case of `COc1cc(CNc2nnnn2C)ccc1OCc1ccc(F)cc1Cl`, the inhibition is inactive: 4.34%.
For the molecule `CCc1cccc(OC2OC(CO)C(O)C(O)C2NC(C)=O)c1` (centres undefined), the inhibition is inactive: -10.8%.
Regarding `CCCc1c(OCCCCc2nn[nH]n2)ccc(C(C)=O)c1O`, the inhibition was inactive: 6.17%.
With `C=CCc1cccc2cc(C(=O)Nc3ccc(CC(=O)O)cc3)c(=O)oc12` the figure was inactive: 2.62%; with `Cc1ccc(CN2CCN(Cc3cn[nH]c3C3CCCCC3)CC2CCO)cc1` (centres undefined), inactive: -2.76%.
The result for `CCCC(=O)Nc1ncnc2c1ncn2[C@@H]1O[C@@H]2COP(=O)(O)O[C@H]2[C@H]1OC(=O)CCC` reads inactive: -11.2%; that for `O=C(N1CCCCC1)C1(c2ccccc2)CCOCC1`, inactive: -5.12%.
With `CC(C)Cc1cc(C(=O)N2CCC(N3CCC(C(=O)N4CCCC4)CC3)CC2)n[nH]1` the figure was inactive: -2.27%.
For `Nc1nc(SCc2ccc([N+](=O)[O-])cc2)c2ncn(C3OC(CO)C(O)C3O)c2n1` (centres undefined), the inhibition is inactive: -5.1%.
With `CCOc1ccc2nc(NC(=O)NC3CCCCC3)sc2c1` the figure was inactive: -5.14%.
Take `COc1cc(COc2ccc3c(C)c(Cc4ccccc4)c(=O)oc3c2)cc(OC)c1OC`: the inhibition was inactive: 11.2%.
With `COc1ccc(CC(=O)NCC2(c3ccc(OC)c(OC)c3)CCOCC2)cc1` the figure was inactive: -9.55%; with `O=C(O)[C@H](Cc1ccccc1)NC(=O)N1CCC(Cc2ccccc2)CC1`, inactive: -7.12%; with `C[C@]12CCC(=O)C=C1CC[C@@H]1[C@@H]2[C@@H](O)C[C@@]2(C)[C@H]1CC[C@]2(O)C(=O)COC(=O)CCC(=O)O`, inactive: 1.23%.
With `CC(C)(C)NC[C@H](O)COc1nsnc1N1CCOCC1`, the inhibition was inactive: 0.59%.
The result for `COc1ccc2c(=O)c(-c3cnn(-c4ccccc4)c3)c(C)oc2c1` reads inactive: 15%; that for `Fc1cccc(Cc2noc(CN3CCN(c4cnccn4)CC3)n2)c1`, inactive: -16.5%.
For `CCOc1ccc(C(=O)Nc2ccc(N3CCN(C(C)=O)CC3)cc2)cc1[N+](=O)[O-]`, the inhibition was inactive: 4.78%.
With `Cn1c(Oc2ccc3c(c2)OCO3)nc2c1c(=O)n(Cc1ccccc1)c(=O)n2C` the figure was inactive: -2.14%; with `O=C(Cc1ccccc1)NCC(=O)OCC(=O)c1ccccc1Cl`, inactive: -13.7%; with `Cc1cnc(C(=O)N2CCCC(C(=O)c3ccc(Cl)cc3C)C2)cn1` (centres undefined), inactive: 1.67%.
Regarding `COc1ccc(-c2nc(C)c(C(C)=O)n2O)cc1OC`, the inhibition is inactive: 7.48%.
`CC(=O)NC(NC(=S)N1CCCCCC1)C(Cl)(Cl)Cl` (centres undefined): the inhibition was inactive: -11.6%.
